Assay results taken from publication PMC7900953, “Location of a single histidine within peptide carriers increases mRNA delivery” (The Journal of Gene Medicine, 2020).

System: mRNA
Test: Heparin displacement assays (dye intercalation and gel electrophoresis)
Type: binding
Conditions: HK:mRNA 4:1 w/w; heparin 37°C 30 min; Sybr Gold fluorescence and gel

Substance: R = KHHHKHHHKHHHKHHHK [H3K4b, four‐branched histidine‐lysine peptide with four ‐HHHK‐ motifs in each branch]
- Stability of polyplex / release of mRNA on exposure to heparin: released by the H3K4b more rapidly than by the H3K(+H)4b peptide

Substance: R = KHHHKHHHKHHHHKHHHK [H3K(+H)4b, four‐branched analogue of H3K4b with one extra histidine in the second ‐HHHK‐ motif]
- Stability of polyplex / release of mRNA on exposure to heparin: binds more tightly to the mRNA
